# Reference: PubChem BioAssay AID1347423 (Functional Genomics Laboratory (NCATS/FGL), 2020)
# Out of some 52,000 sequences screened, about 210 (0.4%) were called active.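 The calls were made as follows: active = gene whose silencing raises cell survival under the drug, median off-target-corrected z-score across its silencing RNAs 2 or more; inactive = the rest.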 The list shows a part of the results.
# Experiment: Resistance to Poly (ADP-Ribose) Polymerase inhibitor: Gene Identification via Genome-wide siRNA Screen
# Conditions: mouse BRCA2 R2336H ES cells, olaparib, CellTiter-Glo viability; hits give high values
# Summary of the method: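 Mouse BRCA2 R2336H ES cells were reverse-transfected with siRNA (20 nM final), treated at 48 h with 500 nM olaparib, and read by CellTiter-Glo after 72 h. Scores: MAD-based z per siRNA, median per gene, seed off-target correction.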
row,Sequence,z-score
1,CCUGGAUCGGAACCAAAUGTT against Ccl2,inactive: -2.11
2,GGGCAAAAGUACUUUGACUTT against Ensa,inactive: -0.779
3,GGAAAAAGCGGUGACCAACTT against Ndufs2,inactive: 0.403
4,GGUUUCUUGCCAAGAAAUUTT against Accn5,inactive: 0.346
5,GGUCUUCCUUCCAGUGUUCTT against Slc5a8,inactive: 2.17
6,GGGCCAUUUUCGAUGGUAGTT against Hs3st3a,inactive: 0.945
7,GGUGAUCAAUACAAGCCGATT against Art1,inactive: 0.0468
8,GCUAAUGUCCGGUUUGUUGTT against Recql5,inactive: 1.32
9,GCUCAGGAAUUUGACACCATT against Lphn3,inactive: 0.724
10,AACUCGUGUGCAACGUGGUTT against 4833401D15Rik,inactive: 0.578
11,GCUCAAGUGCGGAGAAUAATT against Tmem23,inactive: -2.04
12,GGGAUUUUCAGGGAGAUUUTT against 2810052M02Rik,inactive: -0.649
13,GGCAGAGGUACAAUCAGAUTT against Siat8b,inactive: 0.156
14,GGUACAGCUGGUUCUCUUUTT against Olfr1018,inactive: 0.487
15,GGUAACAGCAUUGAAGGUUTT against C1qr1,inactive: -0.952
16,GGGCUCUACUAUUUUUUUUTT against Polh,inactive: -0.851
17,GCUCGGCUUUAGAGACCUATT against 2810437L13Rik,inactive: 0.888
18,GCAGUGACCUCUGGUCAUUTT against Abcc1,inactive: 1.67
19,GGCGAUGAAGUCUACGUGATT against BC040774,inactive: 0.00732
20,CGGAAAGGCGAGGGAUACUTT against Fkbp5,inactive: 0.765
21,GGACAAGAAGAAGAAGCGCTT against Cbara1,inactive: 1.39
22,GAAUCCGAGAUACGAGCCUTT against H2-D4,inactive: 0.794
23,GGUGUAUUCAGAGAAGAAGTT against BC019731,inactive: -0.504

# A second format for part of the listing above:
row	Sequence	z-score
2	GGGCAAAAGUACUUUGACUTT against Ensa	inactive: -0.779
3	GGAAAAAGCGGUGACCAACTT against Ndufs2	inactive: 0.403

# Going on with the list:

row,Sequence,z-score
1,GGUAUCAAGUGCAGAAUGUTT against Slc37a1,active: 1.99
2,GGGUAUCUGUUCUGAUACUTT against Lsm11,inactive: 0.413
3,GGCAGACCGGUAUUUUGUGTT against Ascc2,inactive: 1.37
4,GGAGUUUCUCCAAGAAAAATT against Hrbl,inactive: 0.425
5,GGAGAUGAUCUUCAACCUUTT against Eya2,inactive: -0.54
6,GGAUCAGAACGUGGUGCAUTT against Slc12a5,inactive: 1.49
7,CCUAUAUCAUCAUGGUUUGTT against Txndc1,inactive: 1.35
8,GGAGUGACAAAAAUGUCGGTT against Snx13,inactive: 0.2
9,GGCUUCCUCAAGAACUUUCTT against Acly,inactive: 0.644
10,CCUUGGGACUGACUGUAAGTT against A230072I16Rik,inactive: 2.25
11,GGAGUUCAAGAUCUGGAAGTT against 2410004B18Rik,inactive: 0.554
12,GCAAAACAGUGUUCUAUUATT against Scap2,inactive: -0.659
13,GCGAAAGACAGACACGACCTT against Slc4a4,inactive: 0.367
14,GGAACCAAAGCGAAUUUUATT against Hoxa11,inactive: 0.0602
15,GCUACAUCAUGAAAGACCCTT against 2210021J22Rik,inactive: 0.479
16,GCAGACAACUAGACAUACATT against Selk,inactive: 0.087
17,CCUCAAAUUAGUGCAGUUATT against Dnahc8,inactive: -0.786
18,GGGAUUAAAGAUUUGGUUGTT against 5430404L10Rik,inactive: -0.243
19,GGUUAUUUUGGCUAUAAGATT against Traf3,inactive: 0.163
20,GGUCAUUCGCUUCGAAAAGTT against C1qb,inactive: -0.857
21,GCGAUGCUGGCAAGUAUGUTT against Robo1,inactive: -0.283
22,GGCUUCAGUGAUGAAUGAATT against MGC6357,inactive: -0.271
23,GCUGGUGUCUUAUGGCCUATT against 9130008F23Rik,inactive: -0.704

# Reprinted at random: three records from the list
row,Sequence,z-score
18,GCAGUGACCUCUGGUCAUUTT against Abcc1,inactive: 1.67
16,GCAGACAACUAGACAUACATT against Selk,inactive: 0.087
11,GGAGUUCAAGAUCUGGAAGTT against 2410004B18Rik,inactive: 0.554

# Next part:

row,Sequence,z-score
1,GCCUCUUCAUUUAGCUAAUTT against Klhl10,inactive: 1.52
2,GGACAACAGUGGAAGGCUCTT against Serpinb1a,inactive: -0.777
3,GGAAAAAGAAAAAGAAGGUTT against Timeless,inactive: -0.806
4,CCGUGAACCUAAACCUGUGTT against Rhog,inactive: 0.83
5,GGAAGACUCAGAGAUCCGATT against Atp13a,inactive: -1.57
6,GGUGAAAUAUGUGUAUCAGTT against Psmb9,inactive: 0.257
7,GUUGUCCUCUUUGUCAUCATT against Olfr502,inactive: 1.38
8,GGAAUGAUGAUGUCUCAUATT against Fnbp3,inactive: -3.25
9,GCACCUCGGUCAUUUAUAUTT against G430022H21Rik,inactive: 0.399
10,GCACCUAUUCAAUGAGAAGTT against Chrnd,inactive: -1.57
11,GGCUAGAAACUUGAGUUUCTT against Prnp,inactive: 1.09
12,GCAUAACAAAGAGGUUGAATT against BC053071,inactive: -0.0971
13,GCAAUACUCACCUCUUAAATT against Scamp2,inactive: -0.88
14,GGUAACUGGGAAUUGUGUUTT against Vti1a,inactive: -0.171
15,CUUCUUCUAGCCUACCUCATT against 4930415J05Rik,inactive: -1.83
16,GCAAAUUUAGUUGACCUUGTT against Ghitm,inactive: 0.161
17,GGAAACAGGAAAGUUAAUUTT against Fyco1,inactive: 0.388
18,GGAAGGAGAAAAACAUAAATT against Hnrpm,inactive: -0.404
19,GGGCCUAUUAAUCUUGAGUTT against Klrb1b,inactive: 0.532
20,CGCAAGUGGAUUGUAAUAATT against Sema3e,inactive: -0.446
21,GCAGACUUGGGUGUCUCUUTT against BC030183,inactive: -1.99
